Negatives hold for the conditions tested. Tags and fusion partners may be left off the protein sequences shown. The comparison behind a weaker result is the experiment's own reference, which may not be listed here.
Target: T1, Clr (Sinorhizobium meliloti) (UniProt Q92SD2)
T1 sequence (looked up): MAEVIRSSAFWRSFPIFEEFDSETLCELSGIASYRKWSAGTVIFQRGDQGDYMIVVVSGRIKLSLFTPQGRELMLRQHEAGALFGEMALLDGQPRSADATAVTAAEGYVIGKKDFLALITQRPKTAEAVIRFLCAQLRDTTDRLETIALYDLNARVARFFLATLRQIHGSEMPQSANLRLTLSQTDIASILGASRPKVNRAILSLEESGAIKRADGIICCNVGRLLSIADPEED
Assay: EMSA
Conditions: 1 mM cAMP, EMSA: 2 mM HEPES pH 7.0, 30 mM NaCl, 50 mM KCl, 850 ng salmon sperm DNA, 1 ug BSA, 20 ng Cy3-DNA, 3 ug Clr in 10 uL, room temperature, recombinant protein, residues 1-234, protein details: C-terminal His6 (pET36b, NdeI/XhoI), label: 5'-Cy3 on reverse strand

Row | Sequence | binding result
1 | AGCGGATAACAATTTCACACAGGAAACAGCATATGACCATGATTACGCCAAGCTCGAAATTAACCCTCACTAAAGGGAACAAAAGCTGGAGCTCTTAAGCTTGACGAGGGTGTGATGGCATGTCGTTCATGGCTCCGCTGTAGCAGTGTGCTGTAGCAAACGGAACTGTAAGTCGTTGATTTTGTGCTAAGTCCTTGCGATTAAACAAGGAAAAATGGTGCTGCTAGAGAGATTTGAACTCTCGGCCTCTCCCTTACCAAGGGAGTGCTCTACCCCTGAGCTATAGCAGCATCCGGCGGCACTTCGTGGCAAGCCGCATCAGGCGAGGGGCCTATTGCCATAGCTTGAGGGAGAGCGCAAGCCGCATTTCGAAGTTTTTGGGCGGGCCGCGCCGGGAAGATGGCGGGCTCACACGGTCCAGGGCGCTCAAGCTCTTCCATTGCAGCCTTTTGCGGCACGGACCGGCCCGGAAGCCGCTTCGCGGTTTTCCCCGATTTCGCTCTCACCTGGCCGGCTTGCCGCTTCCGAAGGCCCTGGTTTTGCGGTAATGGATGGCCATGCAGAGCGACGACTCTAGACTGCAGATGGTGAGCAAGGGCGAGGAGCTGTTCA (double strand) [SMc02304] | binds
2 | AGCGGATAACAATTTCACACAGGAAACAGCATATGACCATGATTACGCCAAGCTCGAAATTAACCCTCACTAAAGGGAACAAAAGCTGGAGCTCTTAAGCTTGATCGCGGACGCGGTGAACCCAGCCGGAAAGGCGAACGGTGGAGCCGACATCCGACTTGCGGAGGGCGGCACAGGTGTGGCTGCGGTAACGGTGCATCGTATAGTCCCGGAATTGCTTAAAGGCCGCGCAGCTCGCAGAACGGCGCAGGGCGGCATGGTCAAAGTCGGGCGGAAAAGCGCATGATGCGCCGGTTTTGTCAAGGCCGCGGCGGCGCCGGCGGCAAGAGCGCTGCCCCGGTCGCACAAGTTGCCCGCTTCGACCACAGCCGCAAGCGGTACGGCGCAAATTTGGACACGAGTGGTCACAAATTGCTACTGTTCCCGCGCGTCAGCCACGGTTAAACAGGGGCAAGGGTCGCGTATCGCGCGAGTCGCGGCCGCAATCGGATGCCTTCTGTTCCATGTCCCAGATTCGCCCGCTCTCTAGACTGCAGATGGTGAGCAAGGGCGAGGAGCTGTTCA (double strand) [aspS / SMc01755] | binds more weakly
3 | AGCGGATAACAATTTCACACAGGAAACAGCATATGACCATGATTACGCCAAGCTCGAAATTAACCCTCACTAAAGGGAACAAAAGCTGGAGCTCTTAAGCTTGATGCAAAGAATCCGGCGATGGCGGCGGCCTTCGTAAACTACATTCTCAGTTCGGAGGTCCAGGTTGCTTTCGCGACACGGAATCTCTACGCGCCGACGGTAAAGAATGCCGAAATACCCGATGATTTTGAGTTCCGGGATCTGCTTGTGCTGAACGATGCATTCGGCCGTCTCTACCTGCCGGATCAGGAGAAGATCACTGCCAACAAAGCGGGTTGGCAGCAGCAGCTGAACCAGAAGGCTATGCGCTAAGCAAGCGGCCGTGGTGCACGCACGATCGAGCGCCACGGCTAACCTTGTGAGCCGGGCCTTTCGGCAAGGCGCGTTCCCGGCGGAACTGCCAGAACAGGAACAATGCAACCATGTCCAATGATTCAATTCAGGTCGAGGGAATCACAAAGCGCTATGGCGCGATGACGGCCGTCGACAATGTATCCTTCGATGTTGGCCAGGGGGAGTTCGTGTCGCTGCTCGGCCCGAGCGGTTGTGGAAAGACCACGTCTAGACTGCAGATGGTGAGCAAGGGCGAGGAGCTGTTCA (double strand) [SMa2207] | binds
4 | AGCGGATAACAATTTCACACAGGAAACAGCATATGACCATGATTACGCCAAGCTCGAAATTAACCCTCACTAAAGGGAACAAAAGCTGGAGCTCTTAAGCTTGCCGGCTGTTCTAACAATAGGGCCGACTTCCTGTCACGCAATGGGCGGATACGATTCGCCGTGTTTGGCCGGTGAAATATGGGGTTCTTCAGTGTTCTCCCGTTGGCCCCTTGAAGCACGGCCGACGGCTTGCTAACCGAATCGGTCGCCGAAGGCACATGGCGATCATGGTTCTCTCTAAGATCCAGGCAAACCATAGCCACTGCGGCTGGCCGAAAGCCGTGATTTACGAACTTAACAAACTTGACGAACTGTCCCATCCTGCCTAAGTTATAGCGCAGGAGGCCGAAGACCATGCCCGCGACGAAGACTCTATCTAGACTGCAGATGGTGAGCAAGGGCGAGGAGCTGTTCA (double strand) [SMa1924] | no binding
5 | AGCGGATAACAATTTCACACAGGAAACAGCATATGACCATGATTACGCCAAGCTCGAAATTAACCCTCACTAAAGGGAACAAAAGCTGGAGCTCTTAAGCTTGCTTACAGGCCAACTGGCTTTTTTCTTTGCAGCGCTCCTGCGGCAAAGCACGTTTCCTGAATTTCCCTGGTTCCTGCGAATCACGCCTGCGAGGTTTGCCGCACCTCACCGGCGTGGCTCGCTTTTGCGCGCGATTCCAAGGGATTAGGGTTCGGATCGTAACCCTTTGTTAAACTTAACAACCTATCAATATTTGATCATCCGCAAGGCTGGTTACGAGCTTCTCCCATTGACGCCCATTTGGTCCCATGTTATCCCATAATGGTACTGCGCAAGGGCCGTGCAATGGCCCGCCATCGCGAAATTCGAGGCTTCCGTCGATGGAAGGATCAGGCGGGCACGCACGTGCCCGGCGGGGGATCTTTGCGCGGTCGTGCGAGTGTATGTGCGGGCCGATGATCGTGGCCCGTCAATCGGGGGCGGCCGTTTCGCGTCATGAACCGCTTCTTGTCACATGTTACGAACCGGATCGATGCCTCTAGACTGCAGATGGTGAGCAAGGGCGAGGAGCTGTTCA (double strand) [SMc01857] | no binding
6 | AGCGGATAACAATTTCACACAGGAAACAGCATATGACCATGATTACGCCAAGCTCGAAATTAACCCTCACTAAAGGGAACAAAAGCTGGAGCTCTTAAGCTTGGACCAGATCACCCGCAAAGCCTTCGCCTTCTTGCGGGACGGCGAGCGCAAGCCCGCCATATTGTGGGTCCTTGCCAACCAGGACCTGGCGGAACTCTTCGACCGCGTCGCGCATTTCGAAAACGGGCGGTTGGCGCGCGACGAACCGGTGGAAACGCATGCAAGAGACAGCGACTACAAGGAACTGGCATCTTGATGTAATATTGTTGTCAGGAGGCAAGCATATGTTCCCGCCGGCACGGGATAGGACCTGTTTGCACCAACCGCGACGCATTCGGAGAACCGGACTGTTATGCTCCTAAAACTAGACTGCAGATGGTGAGCAAGGGCGAGGAGCTGTTCA (double strand) [SMb21270] | binds more weakly
7 | AGCGGATAACAATTTCACACAGGAAACAGCATATGACCATGATTACGCCAAGCTCGAAATTAACCCTCACTAAAGGGAACAAAAGCTGGAGCTCTTAAGCTTGGTCAGCCCTTGTATCGGTCGAAAGACGTGTGCCGCAACGTTCCTGTGGGACGCCGACAAGGGGCCGCCGCTCTTCACGCCCAGCGACATAGGTAACAGAAGGCAGTCGCTTCATCCTGCCGTTCCCCGATGGGGTAAACGCGCGCCCTAGAGTTCCGCGAGGAACAGCCAAAACCAATCAGACATGGGATAATAACGGCCATTAGTGCAACTGATACTATGTGATAGCCAGATTAAAAAGTGCCTTCTCTTTTAAACAAAGATTTACTGGAGGGATACTCATATGGCACTAGACTGCAGATGGTGAGCAAGGGCGAGGAGCTGTTCA (double strand) [SMb20905 / SMb20906] | binds
8 | AGCGGATAACAATTTCACACAGGAAACAGCATATGACCATGATTACGCCAAGCTCGAAATTAACCCTCACTAAAGGGAACAAAAGCTGGAGCTCTTAAGCTTGTCGTGGCCCTGACTGATGTCGGCAGAGGTAACGAGGTCGCGCACGGCTATGGCATCGGAAAGGCCGTCGGATGTCTTCGCCACCGGCACGGTTCCGGTCGAGACCGAACGATCGACGCCCGATCCCCCGAAGACGTCGAGGCCCGCGCCCATGCACCCCGGCAGAGCGAGAATCGTCACGCAAATTGCCGCGCTGCGCAGCAATGCGAAGGAAAGACCCTTCTTGCCATCGTTCCGCTTTGCTATGTCTTGCACGGCAATCCTGTCAGACTCGCCAGAGCGCACCACGTCCCGAGGAAGTCCGCAGGCAGGCTCTGACATTATTACGATGCGGAAACACCACTCGGGCTCATCCCGAAGCGTTCCCGCGCCAGACACACGGCATTGGAAAACAATATGACCGCGAACGAGTTATCTAGACTGCAGATGGTGAGCAAGGGCGAGGAGCTGTTCA (double strand) [pdxH] | no binding
9 | AGCGGATAACAATTTCACACAGGAAACAGCATATGACCATGATTACGCCAAGCTCGAAATTAACCCTCACTAAAGGGAACAAAAGCTGGAGCTCTTAAGCTTTACCGCGATCGCACTCCGATCACGGCACCCGCTCGCTTCGCGTGGGGCTGTCCGCATCCAGCCCACGATCGCCGATGCCCAAATCCTCCCGGTCGGACCGAGGCGATACCACGTGCAGAATGCCACAACGAGATAATAATTCAATTTGATTTATTTATTGACACGGTGGATTTTTGATGCTTGATTGACCATCGGAAGCGCCGTCTGCAGCTGAGGAGAATGCTGCAGCGGGTCCTGAAGCCGGCGCGCCGGCATTTTTCATCCTTGGGAGGATTTAATGAAGAAGACAGTTCTTTCTGCCGCATTCGGCTCTAGACTGCAGATGGTGAGCAAGGGCGAGGAGCTGTTCA (double strand) [frcB] | no binding
10 | AGCGGATAACAATTTCACACAGGAAACAGCATATGACCATGATTACGCCAAGCTCGAAATTAACCCTCACTAAAGGGAACAAAAGCTGGAGCTCTTAAGCTTTATCGGTACAGCTTTCCGCACCGCAGACAATCGCCGCAACGGCAATGAACAGGATCGACGTCAACGGATGGCGCGCATTGCGACCGCGCGGATCGGGCAAATCTTCAAAGCAAGCGGCAAATCTACTCATCGAGACCTCCAAGTCAGCGGAGAACTCCAAGAATCGATTTGCCGCAACAAAACAACCGCTTATTTTGCTAAATGCGATTCCCCTGGGTGGTGGGGGGGGCGGTCAAGTTACAGTTACGTAATGAGCATCACTCTTGGATGAGCAAAAGTGACAAATCGTCAAACGCTTTCGACCGGTGCCGGGTGTTATCTTGGTAACCGCAGCATCCGTAGGAGGCTCGTATGCTGAACAGTAGCATCCATTGGGAGGTGGGATGCCTAACGGACATAGGAGTTAATGCCATGAGAGTTTCTCTGTCTAGACTGCAGATGGTGAGCAAGGGCGAGGAGCTGTTCA (double strand) [SMc05008] | binds
11 | AGCGGATAACAATTTCACACAGGAAACAGCATATGACCATGATTACGCCAAGCTCGAAATTAACCCTCACTAAAGGGAACAAAAGCTGGAGCTCTTAAGCTTTCCGGCACGCACATTAAGGTCCGTCAGCGTCGTTGCGCTCATTTCGGCATAGGCTGCGGGAATGGCGGCGAGCATCGCACCGGCTGCCAAAGCCGCTCTGAGCGAGGCCGCTTTGAACAGAGTCGGAGAGAGAGTCTTCATCATCTTGCTCCTCTTTCATTTGCAGGCCAGAACGCGCCGCGCCTCAGGGATGTTCCCCCCGTGACATCACGAAATGTGAGGATGAAACATATTGCCGTCGTCAAGCGTTGCCCGGGCTGACGGAAGCTGACGAAGTCTTCCCTATATTGTTCGCCGGCAATGCGCGGCCGATTTATCGATTTCTGCCCGACACAGGCTGGCTCCAGCCGGGAGTGACGAGATGCAAGGTGAGTTATCGGACGATGCCTCTAGACTGCAGATGGTGAGCAAGGGCGAGGAGCTGTTCA (double strand) [SMc01589 / SMc01590] | binds

Source: publication PMC10127613 (mBio, 2023)
